This note sets out measurements from PubChem BioAssay AID212 (DTP/NCI, 2004).

Molecules are shown by their SMILES. The list does not hold the whole screen: it is rich in T/C values a quarter to a half above the control, in often repeated tests (any T/C) and in doses without a T/C. Other doses and runs of a compound stand elsewhere. T/C: endpoint of the treated group in % of that of the vehicle group. Schedule codes are those of the source, taken here to give the interval after Q, in days (D) or hours (H), and the number of doses after X. Some T/C values carry the count of animals alive at the toxicity check (mostly the fifth day); where none is given, no animal had died by that day. Some entries were tested several times; their values stand side by side, smallest first. Additions like (4×) stand for listed records that agree. Some entries give survivors of the animals treated and no T/C: the source files T/C as zero there, which appears to mark a toxic dose or a test without result, not a measured value. Counts of survivors are from the toxicity check (mostly the fifth day) where no day follows; animals may have died later.

The experiment has as its system BDF1 mice, colon carcinoma 38 sc, T/C %. Nature of the experiment: NCI In Vivo Anticancer Drug Screen. Data for tumor model Colon Carcinoma 38 (subcutaneous) in B6D2F1 (BDF1) mice. The note with it: T/C endpoint: median tumor weight (est.), higher T/C = larger tumour; for T/C: evaluated on day 20. Summed up: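 Compound antitumor activity was assessed in mice carrying transplantable tumors. Survival or tumor size was recorded, and each value is the treated-group measurement divided by that of the vehicle-treated control group.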

Where [1] appears, read: dose: 800.0 mg/kg/injection, schedule: Q07DX002 (ip), vehicle: saline with Tween-80.
Setting [2] is: dose: 160.0 mg/kg/injection, schedule: Q07DX002 (ip), vehicle: saline with Tween-80.
[3] abbreviates: dose: 320.0 mg/kg/injection, schedule: Q07DX002 (ip), vehicle: saline with Tween-80.
The mark [4] stands for this setting: dose: 200.0 mg/kg/injection, schedule: Q07DX002 (ip), vehicle: saline.
[5] abbreviates: dose: 400.0 mg/kg/injection, schedule: Q07DX002 (ip), vehicle: saline.
The mark [6] stands for this setting: dose: 12.5 mg/kg/injection, schedule: Q07DX002 (ip), vehicle: saline with Tween-80.
[7] abbreviates: dose: 50.0 mg/kg/injection, schedule: Q07DX002 (ip), vehicle: saline with Tween-80.
Setting [8] is: dose: 400.0 mg/kg/injection, schedule: Q07DX002 (ip), vehicle: saline with Tween-80.
Setting [9] is: dose: 25.0 mg/kg/injection, schedule: Q07DX002 (ip), vehicle: saline with Tween-80.
The mark [10] stands for this setting: dose: 200.0 mg/kg/injection, schedule: Q07DX002 (ip), vehicle: saline with Tween-80.

As to `O=C1C(NCC(O)CO)=C(N2CC2)C(=O)C(NCC(O)CO)=C1N1CC1` (stereo unspecified), the T/C is, setting by setting: (dose: 2.0 mg/kg/injection, schedule: Q07DX002 (ip), vehicle: saline) 131 % of control; (dose: 4.0 mg/kg/injection, schedule: Q07DX002 (ip), vehicle: saline) 125 % of control; (dose: 8.0 mg/kg/injection, schedule: Q07DX002 (ip), vehicle: saline) 132 % of control. Further, the survivor count was 6 of 10 on day 20 (dose: 16.0 mg/kg/injection, schedule: Q07DX002 (ip), vehicle: saline); 0 of 10 on day 20 (dose: 32.0 mg/kg/injection, schedule: Q07DX002 (ip), vehicle: saline); 1 of 10 on day 20 (dose: 32.0 mg/kg/injection, schedule: Q07DX002 (ip), vehicle: suspension in saline).
For `NCCCNCCSP(=O)(O)O`, the survivor count under setting [1] is 0 of 10 on day 20.
Take `C[n+]1cccc(NC(=O)c2ccc(NC(=O)C34CCC(C(=O)Nc5ccc(C(=O)Nc6ccc[n+](C)c6)cc5)(CC3)CC4)cc2)c1`: the survivor count is listed as 1 of 10 on day 20 under setting [2]; 5 of 10 on day 20 (dose: 180.0 mg/kg/injection, schedule: Q07DX002 (ip), vehicle: saline with Tween-80); 0 of 10 on day 20 under setting [3]; 0 of 10 on day 20 (dose: 360.0 mg/kg/injection, schedule: Q07DX002 (ip), vehicle: saline with Tween-80).
On to `CC(=O)N(C)c1ccc(Nc2cc(C)[nH]c3ccc4ncnc4c23)cc1`, for which the survivor count is reported as 0 of 10 on day 20 under setting [4] and 0 of 10 on day 20 under setting [5].
`O=C1OCC2C(=O)OCC12` (stereo unspecified): the T/C was 133 % of control under setting [6] and 140 % of control under setting [7].
Regarding `O=c1[nH]c(=O)n(C2CC(O)C(CO)O2)cc1C(F)(F)F` (stereo unspecified), the T/C is, setting by setting: (dose: 40.0 mg/kg/injection, schedule: Q07DX002 (ip), vehicle: saline) 130 % of control; (dose: 80.0 mg/kg/injection, schedule: Q07DX002 (ip), vehicle: saline) 128 % of control; under setting [5], 130 % of control.
As to `CCCCOCN(COCCCC)C(C)Cc1ccccc1` (stereo unspecified), the survivor count under setting [8] was 3 of 10 on day 20 and 6 of 10 on day 20; the survivor count under setting [1] is 0 of 10 on day 20.
As to `CCc1ncnc2cc(OCC3CO3)c(OC)cc12` (stereo unspecified), the survivor count by setting is: (dose: 100.0 mg/kg/injection, schedule: Q07DX002 (ip), vehicle: saline) 0 of 10 on day 20; under setting [4], 0 of 10 on day 20; under setting [5], 0 of 10 on day 20.
For `CN(C)C(=O)c1cccc(COc2ccc(N3C(N)=NC(N)=NC3(C)C)cc2Cl)c1`, the survivor count (dose: 64.0 mg/kg/injection, schedule: Q07DX003 (ip), vehicle: saline) is 6 of 10.
As for `O=C1NCC(Br)C(=O)N1` (stereo unspecified), the T/C under setting [6] is 142 % of control; the T/C under setting [9] was 136 % of control; the T/C under setting [7] is 145 % of control; the T/C under setting [10] is 133 % of control; the T/C under setting [8] was 134 % of control [8 of 10 alive on day 20].
As for `CN(C)c1nc(N(C)C)nc(N(C)C)n1`, the T/C by setting is: (dose: 20.0 mg/kg/injection, schedule: Q07DX002 (ip), vehicle: saline with Tween-80) 125, 127, 145, 151 % of control; (dose: 20.0 mg/kg/injection, schedule: Q07DX003 (ip), vehicle: saline with Tween-80) 55, 81, 83, 113, 114 % of control; under setting [9], 131 % of control; (dose: 40.0 mg/kg/injection, schedule: Q07DX002 (ip), vehicle: saline with Tween-80) 118, 125, 129, 156 % of control; (dose: 40.0 mg/kg/injection, schedule: Q07DX003 (ip), vehicle: saline with Tween-80) 64, 77, 92 [8 of 10 alive], 96, 113 % of control; under setting [7], 75, 84 [8 of 10 alive on day 20], 86, 92, 94, 96, 99, 110, 125 [9 of 10 alive on day 20], 127, 154 % of control [8 of 10 alive on day 20]. Also, the T/C reads like this: (dose: 80.0 mg/kg/injection, schedule: Q07DX002 (ip), vehicle: saline with Tween-80) 70, 89, 142, 193 % of control; (dose: 80.0 mg/kg/injection, schedule: Q07DX003 (ip), vehicle: saline with Tween-80) 72 [9 of 10 alive], 75, 88 [9 of 10 alive], 91, 115 % of control; (dose: 100.0 mg/kg/injection, schedule: Q07DX002 (ip), vehicle: saline with Tween-80) 61, 76, 86, 89, 96, 97, 104, 106, 106 [9 of 10 alive on day 20], 110, 116 % of control; under setting [2], 54, 59 [8 of 10 alive], 77, 125 % of control; (dose: 160.0 mg/kg/injection, schedule: Q07DX003 (ip), vehicle: saline with Tween-80) 50, 51, 63, 66 [8 of 10 alive], 79 % of control; under setting [10], 22, 52, 60 [7 of 10 alive on day 20], 64 [9 of 10 alive on day 20], 72, 83 (2×), 95 [8 of 10 alive on day 20], 99, 108, 129 % of control. The T/C is, setting by setting: (dose: 320.0 mg/kg/injection, schedule: Q07DX003 (ip), vehicle: saline with Tween-80) 4 [9 of 10 alive], 8 [7 of 10 alive], 54 [9 of 10 alive], 63 [9 of 10 alive], 92 % of control [8 of 10 alive]; under setting [8], 30 [7 of 10 alive on day 20], 35 [8 of 10 alive on day 20], 40 [9 of 10 alive on day 20], 52 [7 of 10 alive on day 20], 74 [7 of 10 alive on day 20], 78 [7 of 10 alive on day 20], 93 [8 of 10 alive on day 20], 102, 156 % of control [8 of 10 alive on day 20]. The survivor count is, setting by setting: under setting [3], 6 of 10; under setting [8], 4 of 10 on day 20 and 5 of 10 on day 20.
Take `O=C1N(CC2CO2)CCN1CC1CO1` (stereo unspecified): the survivor count (dose: 800.0 mg/kg/injection, schedule: Q07DX002 (ip), vehicle: saline) is given as 1 of 10 on day 20.
`ClCCCN1CCCCC1CCl` (stereo unspecified): under “dose: 50.0 mg/kg/injection, schedule: Q07DX002 (ip), vehicle: saline”, the survivor count is 5 of 10 on day 20.
Take `N#CN=[N+]([O-])c1ccc(C(=O)O)cc1`: the T/C (dose: 7.5 mg/kg/injection, schedule: Q07DX002 (ip), vehicle: Klucel (hydroxypropylcellulose) (HPC)) is 135 % of control; the T/C (dose: 15.0 mg/kg/injection, schedule: Q07DX002 (ip), vehicle: Klucel (hydroxypropylcellulose) (HPC)) was 147 % of control; the T/C (dose: 30.0 mg/kg/injection, schedule: Q07DX002 (ip), vehicle: Klucel (hydroxypropylcellulose) (HPC)) is 133 [9 of 10 alive on day 20] and 147 % of control. The survivor count is 3 of 10 on day 20 (dose: 60.0 mg/kg/injection, schedule: Q07DX002 (ip), vehicle: Klucel (hydroxypropylcellulose) (HPC)) and 0 of 10 on day 20 (dose: 120.0 mg/kg/injection, schedule: Q07DX002 (ip), vehicle: Klucel (hydroxypropylcellulose) (HPC)).
Turning to `Cc1ccc(N)c(N)c1`, under setting [1], the survivor count was 0 of 10 on day 20.
Regarding `O=C(O)Cc1cccc2c(=O)cc(-c3ccc4ccccc4c3)oc12`, the survivor count under setting [5] is given as 6 of 10 on day 20.
`CC1(C)OC2C(COC(=O)c3ccc([N+](=O)[O-])cc3)OC(NC(=O)N(CCCl)N=O)C2O1` (stereo unspecified): the T/C under setting [9] is 147 % of control. Under setting [8], the survivor count is on record as 1 of 10 on day 20.
